From PubChem BioAssay AID330 (DTP/NCI, 2004)
The list shows only some results of the screen, not a fair sample: it gathers tests that were run many times, whatever their T/C, doses with no T/C, and many T/C values between a quarter and a half above the control. Further doses and runs are listed elsewhere. T/C is the treated group as % of the vehicle group. Some doses have a count of surviving animals in place of a T/C: the source files T/C as zero there, which appears to mark a toxic dose or a test without result, not a measured value. Some survivor counts are full or nearly so, which does not show that the dose was tolerated: survival well below the control is almost never listed, so the zero probably covers shortened survival too. Counts of survivors are from the toxicity check (mostly the fifth day) where no day follows; animals may have died later. Schedule codes are those of the source, taken here to give the interval after Q, in days (D) or hours (H), and the number of doses after X. Where survival is the endpoint, this PubChem deposit counts one and a half times the control or more as active, and values a quarter to a half above the control carry no call in these data; other NCI protocols may use other cut-offs. Some T/C values carry the count of animals alive at the toxicity check (mostly the fifth day); without a count, all were alive then. Some entries were tested several times; their values stand side by side, smallest first. Marks such as (2×) stand for listed records that agree.

System: P388 leukemia ip, CD2F1 mice, survival T/C
Experiment: NCI In Vivo Anticancer Drug Screen. Data for tumor model P388 Leukemia (intraperitoneal) in CD2F1 (CDF1) mice
Details: T/C endpoint: median survival time, higher T/C = longer survival
[1] = dose: 200.0 mg/kg/injection, schedule: Q01DX009 (ip), vehicle: saline with Tween-80
[2] = dose: 200.0 mg/kg/injection, schedule: Q01DX009 (ip), vehicle: Klucel (hydroxypropylcellulose) (HPC)

## COC(=O)C[C@](O)(CCCC(C)(C)O)C(=O)O[C@@H]1C(OC)=C[C@]23CCCN2CCc2cc4c(cc2[C@H]13)OCO4
dose: 0.06 mg/kg/injection, schedule: Q01DX009 (ip), vehicle: clinical formulation
  T/C: 140 % of control [9 of 10 alive]
dose: 0.06 mg/kg/injection, schedule: Q01DX009 (ip), vehicle: saline
  T/C: 142 % of control
dose: 0.39 mg/kg/injection, schedule: Q04DX003 (ip), vehicle: saline
  T/C: 140 % of control
dose: 0.5 mg/kg/injection, schedule: Q01DX005 (iv), vehicle: saline
  T/C: 137 % of control
dose: 0.65 mg/kg/injection, schedule: Q04DX003 (ip), vehicle: saline + alcohol
  T/C: 132 % of control
dose: 0.65 mg/kg/injection, schedule: Q04DX003 (ip), vehicle: saline
  T/C: 138 % of control
dose: 0.72 mg/kg/injection, schedule: Q04DX003 (ip), vehicle: saline
  T/C: 126 % of control
dose: 0.75 mg/kg/injection, schedule: Q01DX009 (ip), vehicle: saline
  T/C: 192, 196, 200, 221 % of control
dose: 0.87 mg/kg/injection, schedule: Q01DX009 (ip), vehicle: acid diluted with saline, evaluated on day 5
  T/C: 186, 194, 211 % of control
dose: 0.87 mg/kg/injection, schedule: Q01DX009 (ip), vehicle: acid diluted with saline, evaluated on day 45
  T/C: 177 and 193 % of control
dose: 1.0 mg/kg/injection, schedule: Q01DX009 (ip), vehicle: acid diluted with saline, evaluated on day 5
  T/C: 228 % of control
dose: 1.0 mg/kg/injection, schedule: Q01DX009 (ip), vehicle: acid diluted with saline, evaluated on day 45
  T/C: 183 and 211 % of control
dose: 1.0 mg/kg/injection, schedule: Q01DX009 (ip), vehicle: acid diluted with saline, evaluated on day 60
  T/C: 164, 189, 191, 208 % of control
dose: 1.0 mg/kg/injection, schedule: Q01DX009 (ip), vehicle: saline, evaluated on day 30
  T/C: 250 % of control
dose: 1.0 mg/kg/injection, schedule: Q01DX009 (ip), vehicle: saline, evaluated on day 45
  T/C: 200, 229, 230 % of control (2×)
dose: 1.08 mg/kg/injection, schedule: Q04DX003 (ip), vehicle: saline + alcohol
  T/C: 145 % of control
dose: 1.08 mg/kg/injection, schedule: Q04DX003 (ip), vehicle: saline
  T/C: 141 % of control
dose: 1.2 mg/kg/injection, schedule: Q04DX003 (ip), vehicle: saline
  T/C: 131 % of control
dose: 1.25 mg/kg/injection, schedule: Q01DX009 (ip), vehicle: acid diluted with saline, evaluated on day 45
  T/C: 197, 220, 227 % of control
dose: 1.25 mg/kg/injection, schedule: Q01DX009 (ip), vehicle: acid diluted with saline, evaluated on day 60
  T/C: 175, 189 [9 of 10 alive], 218 % of control
dose: 1.25 mg/kg/injection, schedule: Q01DX009 (ip), vehicle: saline
  T/C: 210, 233 [9 of 10 alive], 237, 248 % of control
dose: 1.3 mg/kg/injection, schedule: Q01DX009 (ip), vehicle: acid diluted with saline, evaluated on day 5
  T/C: 203, 216, 227 % of control
dose: 1.3 mg/kg/injection, schedule: Q01DX009 (ip), vehicle: acid diluted with saline, evaluated on day 45
  T/C: 196, 207, 213 % of control
dose: 1.5 mg/kg/injection, schedule: Q01DX009 (ip), vehicle: acid diluted with saline, evaluated on day 45
  T/C: 207, 212, 213 % of control
dose: 1.5 mg/kg/injection, schedule: Q01DX009 (ip), vehicle: acid diluted with saline, evaluated on day 60
  T/C: 191, 197, 198, 224 % of control
dose: 1.5 mg/kg/injection, schedule: Q01DX009 (ip), vehicle: saline
  T/C: 219, 231, 243 [9 of 10 alive], 250 % of control
dose: 2.0 mg/kg/injection, schedule: Q01DX005 (iv), vehicle: clinical formulation
  survivor count: 2 of 10
dose: 2.0 mg/kg/injection, schedule: Q01DX009 (ip), vehicle: acid diluted with saline, evaluated on day 5
  T/C: 67, 219, 223, 281 % of control
dose: 2.0 mg/kg/injection, schedule: Q01DX009 (ip), vehicle: acid diluted with saline, evaluated on day 45
  T/C: 207 [9 of 10 alive], 208, 218, 227, 230 [9 of 10 alive], 243 % of control
dose: 2.0 mg/kg/injection, schedule: Q01DX009 (ip), vehicle: acid diluted with saline, evaluated on day 60
  T/C: 201 and 208 % of control
dose: 2.0 mg/kg/injection, schedule: Q01DX009 (ip), vehicle: acid diluted with saline
  survivor count: 9 of 10
dose: 2.0 mg/kg/injection, schedule: Q01DX009 (ip), vehicle: clinical formulation
  survivor count: 8 of 10
dose: 2.0 mg/kg/injection, schedule: Q01DX009 (ip), vehicle: saline
  survivor count: 9 of 10
dose: 2.0 mg/kg/injection, schedule: Q04DX003 (ip), vehicle: saline
  T/C: 140 % of control
dose: 3.0 mg/kg/injection, schedule: Q04DX003 (ip), vehicle: saline
  survivor count: 3 of 8
dose: 4.0 mg/kg/injection, schedule: Q01DX005 (iv), vehicle: clinical formulation
  survivor count: 0 of 10
dose: 4.0 mg/kg/injection, schedule: Q01DX005 (iv), vehicle: saline
  survivor count: 0 of 10
dose: 4.0 mg/kg/injection, schedule: Q01DX009 (ip), vehicle: acid diluted with saline
  survivor count: 0 of 5
dose: 4.0 mg/kg/injection, schedule: Q01DX009 (ip), vehicle: clinical formulation
  survivor count: 2 of 10
dose: 4.0 mg/kg/injection, schedule: Q01DX009 (ip), vehicle: saline
  survivor count: 2 of 10
dose: 5.0 mg/kg/injection, schedule: Q04DX003 (ip), vehicle: saline + alcohol
  survivor count: 3 of 8
dose: 8.0 mg/kg/injection, schedule: Q01DX005 (iv), vehicle: clinical formulation
  survivor count: 0 of 10
dose: 8.0 mg/kg/injection, schedule: Q01DX005 (iv), vehicle: saline
  survivor count: 0 of 10
dose: 8.0 mg/kg/injection, schedule: Q01DX009 (ip), vehicle: clinical formulation
  survivor count: 0 of 10
dose: 8.0 mg/kg/injection, schedule: Q01DX009 (ip), vehicle: saline
  survivor count: 0 of 10

## CCN(CC)c1nc(N(CC)CC)c2[nH]cnc2n1
dose: 200.0 mg/kg/injection, schedule: Q01DX005 (ip), vehicle: saline with Tween-80
  survivor count: 0 of 5

## CC1(C)C2CCC1(C)C(N1C(=O)N=NC1=O)C2 (centres undefined)
dose: 100.0 mg/kg/injection, schedule: Q01DX005 (ip), vehicle: saline with Tween-80
  survivor count: 3 of 5

## Nc1ccc(NC(=O)c2cc(Cl)cc(Cl)c2O)c(Cl)c1
[1]
  survivor count: 2 of 6

## O=C(O)c1cc(CCCC(=O)c2cc(C(=O)O)c(O)c3ccccc23)c2ccccc2c1O
dose: 200.0 mg/kg/injection, schedule: Q04DX002 (ip), vehicle: Klucel (hydroxypropylcellulose) (HPC)
  survivor count: 0 of 6
dose: 400.0 mg/kg/injection, schedule: Q04DX002 (ip), vehicle: Klucel (hydroxypropylcellulose) (HPC)
  survivor count: 0 of 6

## OCc1c(CO)c(C(F)(F)F)n2c1CCC2
[2]
  survivor count: 3 of 6

## NS(=O)(=O)c1cc2c(cc1Cl)NC(CCC(=O)O)=NS2(=O)=O
dose: 12.5 mg/kg/injection, schedule: Q01DX009 (ip), vehicle: other
  survivor count: 6 of 6
dose: 200.0 mg/kg/injection, schedule: Q01DX009 (ip), vehicle: other
  survivor count: 6 of 6

## [Cl][Sn]1([Cl])[CH2]CC[CH2][Sn]([Cl])([Cl])[CH2]CC[CH2]1
dose: 200.0 mg/kg/injection, schedule: Q04DX002 (ip), vehicle: saline
  survivor count: 1 of 6
dose: 400.0 mg/kg/injection, schedule: Q04DX002 (ip), vehicle: saline
  survivor count: 0 of 6

## COc1ccc(/C=c2\sc3nc(-c4ccccc4)nn3c2=O)cc1
[2]
  survivor count: 5 of 6

## CCCCCCCCCCSCC(N)CO (centres undefined)
dose: 50.0 mg/kg/injection, schedule: Q01DX009 (ip), vehicle: saline with Tween-80
  survivor count: 6 of 6
dose: 100.0 mg/kg/injection, schedule: Q01DX009 (ip), vehicle: saline with Tween-80
  survivor count: 0 of 6
[1]
  survivor count: 0 of 6

## CC(/C=C/C=C/C=C/C=C/C=C/C(O)=C1/C(=O)C(CCC(=O)O)N(C)C1=O)=C\C(C)C(OC1CC(O)C(O)C(C)O1)C(C)C (centres undefined)
dose: 1.0 mg/kg/injection, schedule: Q01DX005 (ip), vehicle: water
  T/C: 147 % of control
dose: 2.0 mg/kg/injection, schedule: Q01DX005 (ip), vehicle: water
  T/C: 146 % of control

## O=C(/C=C/c1ccc(Cl)cc1)c1ccccc(=O)c1O
dose: 200.0 mg/kg/injection, schedule: Q01DX005 (ip), vehicle: Klucel (hydroxypropylcellulose) (HPC)
  survivor count: 3 of 6

## CCCCCCN(CCCCCC)C(=N)c1ccnc2ccccc12
dose: 100.0 mg/kg/injection, schedule: Q01DX005 (ip), vehicle: saline
  survivor count: 0 of 5
dose: 200.0 mg/kg/injection, schedule: Q01DX005 (ip), vehicle: saline
  survivor count: 0 of 5
